# Test results taken from article doi:10.1101/2023.07.29.551094.
# No constants are given. Whether binding was seen depends on the method and setting. Binding calls can cover weak binding; strength is not graded here. For some assays here: Sequences can lack the tags named with a protein. For some assays here: Binding seen in cells or lysates may run through a third protein.
# Tests used:
# [1] = target: T1, His-TilA without its signal sequence (four-protein complex) (S. aureus) (UniProt Q2G0W9); test: pull-down + SEC
# T1 sequence: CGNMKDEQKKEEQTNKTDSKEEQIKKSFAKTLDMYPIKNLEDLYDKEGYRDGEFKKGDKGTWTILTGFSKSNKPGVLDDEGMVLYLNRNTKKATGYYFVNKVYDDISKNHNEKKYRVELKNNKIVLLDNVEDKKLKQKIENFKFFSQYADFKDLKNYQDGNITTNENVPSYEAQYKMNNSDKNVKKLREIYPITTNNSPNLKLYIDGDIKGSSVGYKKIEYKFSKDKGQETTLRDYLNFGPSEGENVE
# [2] = target: TlaA1-Strep (four-protein complex) (S. aureus) (UniProt Q2G0W7); test: pull-down + SEC
# [3] = target: TslA (SAOUHSC_00406) in the four-protein complex (S. aureus) (UniProt Q2G0W8); test: pull-down + SEC
# [4] = target: TslA (SAOUHSC_00406) in the four-protein complex (S. aureus) (UniProt Q2G0W8); test: cryo-EM structure
# [5] = target: T1, His-TilA without its signal sequence (four-protein complex) (S. aureus); test: cryo-EM structure
Substance,binding [1],binding [2],binding [3],binding [4],binding [5]
TlaA1-Strep (four-protein complex) (from UniProt Q2G0W7),binds,–,–,–,–
TlaA2-Myc (four-protein complex) (from UniProt Q2G0W6),binds,binds,binds,binds,–
TslA (SAOUHSC_00406) in the four-protein complex (from UniProt Q2G0W8),binds,binds,–,–,binds
